Values are relative to the signal before dosing, not to a vehicle control; the signal also falls without drug.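 Fibroblast labels name human fibroblasts: mostly primary ones from tissues such as uterus (C12385, HUF), lung (H6013), bone (Hs27A), adrenal (HADF) and skin (WS1), plus mammary HMF and breast cancer-associated Hs343T. The cancer cells are basal-like or mesenchymal-like triple-negative breast cancer lines. The paper calls a changed response a hit when it shifts by more than 3x the replicate standard deviation. The tissue of the other fibroblasts is not given here.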
System: MDAMB468
Assay: relative JC-1 red fluorescence (viability) vs pre-drug, coculture with fibroblast (fraction); higher = more viable cancer cells
Details: 10 µM
Method: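 JC-1 labelled TNBC cells cocultured 1:1 (1,500 cells each) with CellTrace Violet stained primary or stromal fibroblasts in 384-well plates in FluoroBrite medium, treated with one of 42 anticancer drugs at 0.1, 1, 10 or 100 uM. JC-1 red fluorescence (mitochondrial integrity in cancer cells only) was read by plate reader every 8 h for 72 h. Values are normalised to each well's pre-drug value. The stock of one drug was tenfold lower, so its dose labels may be too high.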

O=c1[nH]cc(F)c(=O)[nH]1 [Fluorouracil]
relative JC-1 red fluorescence
Details	8 h	16 h	24 h	32 h	40 h	48 h	56 h	64 h	72 h
coculture fibroblast: C12385	0.8767	0.79	0.755	0.702	0.663	0.649	0.613	0.585	0.575
coculture fibroblast: H6013	0.9132	0.8267	0.8391	0.852	0.858	0.895	0.878	0.89	0.839
coculture fibroblast: H6019	0.862	0.827	0.8122	0.7748	0.7446	0.738	0.7	0.683	0.667
coculture fibroblast: H6076	0.93853	0.9535	0.918	0.922	0.848	0.843	0.792	0.781	0.828
coculture fibroblast: H6231	0.831	0.953	0.883	0.87	0.816	0.785	0.733	0.714	0.701
coculture fibroblast: HADF	0.888	0.8291	0.772	0.757	0.71	0.697	0.655	0.642	0.601
coculture fibroblast: HCFa	0.8872	0.785	0.7451	0.7156	0.653	0.643	0.599	0.57	0.533
coculture fibroblast: HCPF	0.888	0.9887	0.905	0.8942	0.8379	0.7983	0.74731	0.7244	0.6994
coculture fibroblast: HHSteC	0.917	0.8621	0.83561	0.808	0.778	0.782	0.718	0.706	0.664
coculture fibroblast: HMF	0.873	0.836	0.93	0.9	0.84	0.818	0.779	0.759	0.738
coculture fibroblast: HPFa	0.9353	0.8663	0.83	0.7694	0.72453	0.7218	0.6677	0.6516	0.5944
coculture fibroblast: HUF	0.929	0.859	0.802	0.753	0.699	0.674	0.629	0.622	0.607
coculture fibroblast: Hs5	0.75	0.834	0.956	0.946	0.875	0.853	0.798	0.773	0.793
coculture fibroblast: Hs27A	0.859	0.794	0.771	0.774	0.714	0.702	0.6599	0.6379	0.5883
coculture fibroblast: Hs343T	0.9029	0.9854	0.89238	0.854	0.7757	0.7482	0.693	0.674	0.639
coculture fibroblast: WS1	0.891	0.788	0.744	0.687	0.652	0.622	0.597	0.564	0.557

— the supplement of paper PMC6078165
